These are yes or no findings as the source states them, for the method shown. Binding seen in cells or lysates may run through a third protein. Some results given as binding are weak or reduced against the parent protein; the word gives no strength.

Chains of the proteins cited; added tags and fusions are not shown.
UniProt P01106: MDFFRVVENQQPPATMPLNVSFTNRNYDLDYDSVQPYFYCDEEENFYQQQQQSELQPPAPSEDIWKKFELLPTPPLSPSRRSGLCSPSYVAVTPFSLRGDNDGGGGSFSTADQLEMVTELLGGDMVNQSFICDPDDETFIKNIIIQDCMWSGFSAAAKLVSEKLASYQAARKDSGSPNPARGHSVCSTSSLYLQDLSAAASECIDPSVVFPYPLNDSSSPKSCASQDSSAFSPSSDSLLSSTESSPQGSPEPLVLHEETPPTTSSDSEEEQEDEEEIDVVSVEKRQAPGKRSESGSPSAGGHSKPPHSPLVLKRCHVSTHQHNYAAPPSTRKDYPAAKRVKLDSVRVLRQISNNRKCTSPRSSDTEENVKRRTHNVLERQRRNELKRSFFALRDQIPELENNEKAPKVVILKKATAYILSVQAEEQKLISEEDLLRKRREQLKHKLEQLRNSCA
UniProt Q93009: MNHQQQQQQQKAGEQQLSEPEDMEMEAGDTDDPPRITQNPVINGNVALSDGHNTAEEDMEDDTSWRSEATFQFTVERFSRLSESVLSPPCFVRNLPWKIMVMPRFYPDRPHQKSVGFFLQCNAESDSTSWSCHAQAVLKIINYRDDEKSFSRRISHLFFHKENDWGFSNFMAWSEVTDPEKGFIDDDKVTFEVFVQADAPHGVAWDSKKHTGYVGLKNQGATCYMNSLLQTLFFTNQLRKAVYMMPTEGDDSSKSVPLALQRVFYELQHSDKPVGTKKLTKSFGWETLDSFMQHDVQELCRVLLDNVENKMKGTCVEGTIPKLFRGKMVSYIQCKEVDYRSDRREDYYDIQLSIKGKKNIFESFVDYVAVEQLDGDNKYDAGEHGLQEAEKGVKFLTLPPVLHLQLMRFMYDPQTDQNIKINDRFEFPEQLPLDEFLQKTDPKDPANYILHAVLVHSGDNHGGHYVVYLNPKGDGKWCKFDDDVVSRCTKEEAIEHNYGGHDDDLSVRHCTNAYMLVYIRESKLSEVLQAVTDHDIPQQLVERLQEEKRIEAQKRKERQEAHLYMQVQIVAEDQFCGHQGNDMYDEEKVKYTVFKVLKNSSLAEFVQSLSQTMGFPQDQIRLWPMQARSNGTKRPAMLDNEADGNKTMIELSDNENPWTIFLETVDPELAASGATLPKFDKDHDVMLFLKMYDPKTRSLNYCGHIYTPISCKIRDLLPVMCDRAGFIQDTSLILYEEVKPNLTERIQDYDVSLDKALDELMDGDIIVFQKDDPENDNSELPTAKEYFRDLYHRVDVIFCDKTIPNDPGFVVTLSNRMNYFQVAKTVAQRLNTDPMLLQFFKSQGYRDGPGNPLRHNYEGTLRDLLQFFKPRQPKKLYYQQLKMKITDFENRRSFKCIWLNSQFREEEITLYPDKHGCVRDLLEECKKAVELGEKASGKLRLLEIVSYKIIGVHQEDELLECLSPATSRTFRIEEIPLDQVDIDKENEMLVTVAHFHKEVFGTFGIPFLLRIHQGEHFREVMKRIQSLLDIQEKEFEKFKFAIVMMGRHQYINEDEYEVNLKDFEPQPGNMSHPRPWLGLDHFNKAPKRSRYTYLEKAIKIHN
UniProt Q13049: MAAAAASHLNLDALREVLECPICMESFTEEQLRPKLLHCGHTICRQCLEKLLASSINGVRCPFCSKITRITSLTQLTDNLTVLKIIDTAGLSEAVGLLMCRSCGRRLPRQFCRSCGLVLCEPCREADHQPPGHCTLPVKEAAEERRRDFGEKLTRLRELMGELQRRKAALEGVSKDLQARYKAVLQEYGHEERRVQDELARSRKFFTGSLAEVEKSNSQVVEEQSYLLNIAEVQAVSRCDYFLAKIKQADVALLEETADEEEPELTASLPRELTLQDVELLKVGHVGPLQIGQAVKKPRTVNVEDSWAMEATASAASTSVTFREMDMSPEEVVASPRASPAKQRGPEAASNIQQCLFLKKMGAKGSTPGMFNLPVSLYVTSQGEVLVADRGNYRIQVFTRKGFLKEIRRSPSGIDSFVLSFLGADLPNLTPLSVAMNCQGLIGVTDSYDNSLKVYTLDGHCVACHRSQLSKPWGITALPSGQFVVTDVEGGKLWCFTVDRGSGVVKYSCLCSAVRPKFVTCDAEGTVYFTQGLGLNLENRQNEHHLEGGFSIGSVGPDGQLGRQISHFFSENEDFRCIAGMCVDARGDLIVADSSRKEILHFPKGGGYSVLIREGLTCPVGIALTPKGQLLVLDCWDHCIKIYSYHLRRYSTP

Test [1] deals with c-Myc (overexpressed from pcDNA3-c-Myc) (UniProt P01106). Briefly: co-IP; HEK293T cells transfected with the indicated constructs, lysed 48 h later in nuclear lysis buffer (50 mM TRIS pH 7.5, 0.5 M NaCl, 1% NP-40, 1% DOC, 0.1% SDS, 2 mM EDTA), SDS reduced to 0.07%; IP with anti-FLAG (FLAG-USP7) or anti-c-Myc antibody 4 h at 4 °C, protein-G agarose overnight at 4 °C; western blot. (A western blot detects proteins with antibodies after separation by electrophoresis.)

For test [2], the target named is FLAG-tagged USP7 (UniProt Q93009). The test is described as above.

In the case of “FLAG-tagged USP7 (from UniProt Q93009 1-1102) (enzyme)”, the binding result in test [1] was “binds”.

Take “GFP-tagged TRIM32 (from UniProt Q13049 1-653) (enzyme)”: the binding result in test [2] and in test [1] was “binds” in each case.

Consider “c-Myc (overexpressed from pcDNA3-c-Myc) (from UniProt P01106 1-454)”, for which, in test [2], the binding result is recorded as “binds”.

(Values after article PMC6460386.)
